Experimental data: PubChem BioAssay AID1259424 (University of Nebraska Medical Center, 2018)
The deposit covers about 14,000 reagents; this is a part drawn at random. 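Higher correlation or smaller distance means closer resemblance to KSR1 loss; control wells, including KSR1 knockdowns, recur on many plates.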 Further read-outs or replicates are left out here. Reagent sequences are not shown. Not given: the time to read-out.

- Aim: 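Seek colon cancer survival genes behaving like KSR1, using a six-gene signature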 (primary screen)
- System: human HCT116 colon cancer cells
- Knock-down reagent: siRNA pool against human genes, 50 nM
- Measurement: 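Six signature mRNAs by branched-DNA multiplex assay, scaled to two housekeeping genes and non-targeting median, log2; matched to mean KSR1 knockdown profile by Pearson correlation and euclidean distance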
- Scale: mean correlation with KSR1 profile: higher = expression change more like KSR1 knockdown

PCDH12 (protocadherin 12) | mean correlation with KSR1 profile = 0.501
GTF2I (general transcription factor IIi) | mean correlation with KSR1 profile = 0.761
LYSET (lysosomal enzyme trafficking factor) | mean correlation with KSR1 profile = -0.644
MYBPC2 (myosin binding protein C2) | mean correlation with KSR1 profile = 0.0988
NGLY1 (N-glycanase 1) | mean correlation with KSR1 profile = 0.0153
H1-0 (H1.0 linker histone) | mean correlation with KSR1 profile = 0.588
SCPEP1 (serine carboxypeptidase 1) | mean correlation with KSR1 profile = 0.0567
THOC3 (THO complex subunit 3) | mean correlation with KSR1 profile = 0.171
FIG4 (FIG4 phosphoinositide 5-phosphatase) | mean correlation with KSR1 profile = -0.419
TACR1 (tachykinin receptor 1) | mean correlation with KSR1 profile = 0.516
DDX60 (DExD/H-box helicase 60) | mean correlation with KSR1 profile = 0.356
TSNAX (translin associated factor X) | mean correlation with KSR1 profile = -0.104
ELF1 (E74 like ETS transcription factor 1) | mean correlation with KSR1 profile = 0.635
LMLN (leishmanolysin like peptidase) | mean correlation with KSR1 profile = -0.128
FBXO31 (F-box protein 31) | mean correlation with KSR1 profile = -0.321
BAHCC1 (BAH domain and coiled-coil containing 1) | mean correlation with KSR1 profile = -0.108
TFIP11 (tuftelin interacting protein 11) | mean correlation with KSR1 profile = -0.272

Next part; the last 2 above are carried over.
BAHCC1 (BAH domain and coiled-coil containing 1) | mean correlation with KSR1 profile = -0.108
TFIP11 (tuftelin interacting protein 11) | mean correlation with KSR1 profile = -0.272
EPHA6 (EPH receptor A6) | mean correlation with KSR1 profile = -0.331
GNG2 (G protein subunit gamma 2) | mean correlation with KSR1 profile = -0.235
PTGER1 (prostaglandin E receptor 1) | mean correlation with KSR1 profile = 0.954
ZSCAN16 (zinc finger and SCAN domain containing 16) | mean correlation with KSR1 profile = 0.0277
GFOD3P | mean correlation with KSR1 profile = -0.698
APOBR (apolipoprotein B receptor) | mean correlation with KSR1 profile = -0.405
GPANK1 (G-patch domain and ankyrin repeats 1) | mean correlation with KSR1 profile = 0.123
ZDHHC11 (zDHHC palmitoyltransferase 11) | mean correlation with KSR1 profile = 0.203
CABP5 (calcium binding protein 5) | mean correlation with KSR1 profile = -0.155
SARS2 (seryl-tRNA synthetase 2, mitochondrial) | mean correlation with KSR1 profile = -0.0645
GPR88 (G protein-coupled receptor 88) | mean correlation with KSR1 profile = 0.442
GPR137 (G protein-coupled receptor 137) | mean correlation with KSR1 profile = 0.519
GDF5 (growth differentiation factor 5) | mean correlation with KSR1 profile = 0.446
TUBGCP6 (tubulin gamma complex component 6) | mean correlation with KSR1 profile = 0.462
GATA2 (GATA binding protein 2) | mean correlation with KSR1 profile = 0.335
PFN2 (profilin 2) | mean correlation with KSR1 profile = 0.403
FKTN (fukutin) | mean correlation with KSR1 profile = -0.287
HRH1 (histamine receptor H1) | mean correlation with KSR1 profile = 0.74
TRIM66 (tripartite motif containing 66) | mean correlation with KSR1 profile = -0.375
